PubChem BioAssay AID720541 (National Center for Advancing Translational Sciences (NCATS), 2013)
Screen size: about 1,300 compounds; about 420 (32%) were called active. This list was built around the results that the source calls inconclusive (neither active nor inactive); the mix of calls is not that of the screen. Calls come from the whole dose curve; as a rule, active = well fitted inhibition curve with a large enough effect; inconclusive = small, poorly fitted or top-dose-only effect; inactive = no such curve, though single readings can be large or run the other way. Where the call is inconclusive, the potency comes from a doubtful curve fit.

The compounds below were run against C-terminal-binding protein 1 (Homo sapiens) (UniProt Q13363) (assay: qHTS for Inhibitors of the Phosphatase Activity of Eya2: Carboxyl-terminal binding protein (CtBP) Counterscreen for Cherry-picked Compounds). Details: purified protein-protein binding, AlphaScreen, 3 h; series mostly up to 46.1 µM.
Summary of the method: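 AlphaScreen using 25 nM GST-E1A with 25 nM CtBP-6xHIS; compounds at 2.5 nM–46 uM final, 2 h at room temperature, then donor/acceptor beads (20 ug/mL) for 1 h in the dark. Signal normalized to E1A peptide inhibitor (maximum inhibition) and DMSO.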
Note: nearly all actives have a fitted effect of over 65% in size.
Potency is the fitted concentration of half-maximal effect.

Compound	Potency
CN[C@H]1C[C@H]2c3[nH]c4ccc(-c5ccc(OC)cc5)cc4c3CCN2C(=O)[C@H]1[C@H](C)O	inconclusive: 16.9 µM [inhibitor, partial curve]
O=C(Oc1ccc(C(=S)N2CCOCC2)cc1Cl)c1ccccc1F	inconclusive: 19 µM [inhibitor, single point]
O=C(Nc1cc(S(=O)(=O)N2CCOCC2)ccc1Cl)c1cc(=O)c2ccccc2o1	inactive
O=c1nc2cccc3c2=c(/c1=C(\O)c1ccccc1)c1ccccc1c3=O	inconclusive: 15.1 µM [inhibitor, partial curve]
Cc1ccc(C(=O)CSc2nnc(CNc3nc(-c4ccccc4)cs3)n2C)cc1	inconclusive: 7.57 µM [inhibitor, partial curve]
CC1(C)CC(=O)c2c(oc3ccc(NS(=O)(=O)c4cccc5cccnc45)cc23)C1	inactive
Cc1cccn2c(=O)c3cc(C(=O)NCc4ccccc4)c(=N)n(CCCN4CCOCC4)c3nc12	inconclusive: 19 µM [inhibitor, single point]
O=C(Nc1nc2c(F)cc(F)cc2s1)c1ccc([N+](=O)[O-])o1	inactive
CN(C)C(=O)/C(=C\c1ccc(-c2cccc([N+](=O)[O-])c2)o1)NC(=O)c1ccccc1	inconclusive: 10.7 µM [inhibitor, partial curve]
N=C1S/C(=C\c2ccco2)C(=O)N1c1nccs1	inconclusive: 21.3 µM [inhibitor, single point]
Cc1ccc(C(=O)Nc2cccc(O)c2)cc1S(=O)(=O)N1CCCCCC1	inconclusive: 16.9 µM [inhibitor, single point]
CCOC(=O)C1=C(N)Oc2c(oc(CO)cc2=O)C1c1ccc(Cl)cc1 (stereo unspecified)	inactive
Cc1nc2c(c(=O)c3ccccc3n2C)c(=O)n1-c1ccccc1	inconclusive: 15.1 µM [inhibitor, single point]
COc1cc(/C=C2\SC(=S)N(CCC(=O)Nc3cccc(O)c3)C2=O)cc(OC)c1OC	inactive
c1ccc2cc(CSCc3nc4ccccc4[nH]3)ccc2c1	inactive
Nc1nc2ncc(CNc3ccc(C(=O)NC(CCC(=O)O)C(=O)O)cc3)nc2c(=O)[nH]1 (stereo unspecified)	inconclusive: 13.5 µM [inhibitor, partial curve]
Cc1ccc(CSc2nnc(-c3ccccn3)n2N)cc1	inconclusive: 19 µM [inhibitor, single point]
C=C(C)COc1ccc(-c2nc(N)nc(C)c2-c2ccc(OC)cc2)c(O)c1	active: 6.01 µM
O=S(=O)(Nc1nnc(-c2ccccc2)s1)c1ccc(Cl)cc1	active: 16.9 µM
Cc1cc(C(=O)O)ccc1-n1c(C)cc(C=C2C(=O)c3ccccc3C2=O)c1C	inactive
CC(C(=O)O)N1C(=O)/C(=C/C=C/c2ccco2)SC1=S (stereo unspecified)	inconclusive: 15.1 µM [inhibitor, partial curve]
CCS(=O)(=O)N1CCC(C(=O)Oc2ccc(Cl)cc2)CC1	inactive
CCC1CCCCN1c1nc(-c2cccc(OC)c2O)nc2ccccc12 (stereo unspecified)	inconclusive: 13.5 µM [inhibitor, partial curve]
COc1ccc(-c2csc(-c3ccc(C(=O)O)cc3)n2)cc1	inactive

Compound	Potency
CN(C)CCc1cc2c(c3c1ccc1ccccc13)OCO2	inconclusive: 16.9 µM [inhibitor, partial curve]
O=c1c2ccc(Cl)cc2nc2n1CC/C2=C\c1cccc(O)c1	inconclusive: 1.07 µM [inhibitor, full curve, poor fit]
CC(=O)Nc1ccc(S(=O)(=O)Nc2ccc(N3CCCCC3)cc2)cc1	active: 8.49 µM
COc1ccc(OC)c(NC(=O)CSc2nc(-c3ccccc3)cc(=O)[nH]2)c1	inactive
NNC(=O)c1oc2nc(-c3ccco3)cc(-c3ccco3)c2c1N	inconclusive: 19 µM [inhibitor, single point]
O=C(NCCC1=CCCCC1)c1[nH]c(C(F)(F)F)nc1-c1ccccc1	inactive
CCN(CC)CCSc1nnc2c3ccccc3n(CCc3ccccc3)c2n1	inconclusive: 16.9 µM [inhibitor, single point]
Cc1ccc(Nc2c(-c3ccccn3)nc3ccc(C)cn23)cc1	active: 4.26 µM
O=C1c2ccccc2C(=O)c2c(Nc3ccc(CCO)cc3)ccc(O)c21	active: 6.01 µM
O=C(O)c1ccc2c(c1)C(=O)N(c1cccc(-c3nc4ccccc4s3)c1)C2=O	inactive
O=C1C(=Cc2ccco2)CCC1=Cc1ccco1	inconclusive: 15.1 µM [inhibitor, partial curve]
CN1CCN(c2ccc(CNC(=O)C3Cc4c(-c5ccccc5Oc5ccccc5)ccnc4O3)cc2)CC1 (stereo unspecified)	inconclusive: 15.1 µM [inhibitor, single point]
COc1cccc(C(=O)Nc2ccc3c(c2)n(C)c(=O)n3C)c1	inconclusive: 16.9 µM [inhibitor, partial curve]
Cc1nn(C)c(Cl)c1CN1CCCC(CO)(Cc2cccc(Cl)c2)C1 (stereo unspecified)	inactive
CC(=O)Oc1ccc(C(=O)Nc2cccc(C(=O)c3cccc(NC(=O)c4ccc(OC(C)=O)cc4)c3)c2)cc1	inconclusive: 9.53 µM [inhibitor, partial curve]
O=C(Oc1ccc(C(=S)N2CCCCC2)cc1)c1ccccc1F	inactive
S=C(Nc1ccccc1)c1nc2ccccc2s1	inconclusive: 5.36 µM [inhibitor, partial curve]
COc1ccccc1C(=O)Nc1c[nH]c(=O)[nH]c1=O	inconclusive: 16.9 µM [inhibitor, single point]
Cc1ccc(C(=O)Nc2ccc(O)cc2C(=O)O)cc1C	inconclusive: 19 µM [inhibitor, single point]
Cc1cc(-c2cccs2)c2c(n1)sc1c(=O)[nH]c(=O)[nH]c12	inconclusive: 15.1 µM [inhibitor, single point]
CN(Cc1ncc[nH]1)Cc1cn(-c2ccccc2)nc1-c1ccc2c(c1)OCO2	inconclusive: 30.1 µM [inhibitor, single point]
Nn1c(SCC(=O)Nc2ccc3c(c2)OCCO3)nnc1-c1ccccn1	active: 15.1 µM
COc1ccccc1NC(=O)c1ccc(NC(=O)Cc2n[nH]c(=O)c3ccccc23)cc1	inactive
O=C(Nc1cccc(S(=O)(=O)N2CCCC2)c1)c1ccc(Cl)nc1	inconclusive: 16.9 µM [inhibitor, partial curve]

Compound	Potency
Cc1c(CCC(=O)NCCCCCC(=O)O)c(=O)oc2cc3occ(-c4ccccc4)c3cc12	active: 8.49 µM
COc1ccccc1Nc1cc(C)nc2c(C)ccc([N+](=O)[O-])c12	inconclusive: 15.1 µM [inhibitor, partial curve]
O=C(Nc1sc2c(c1C(=O)O)CCC2)c1ccccc1F	inconclusive: 15.1 µM [inhibitor, single point]
O=C(Nc1ccc(Cl)c(S(=O)(=O)N2CCOCC2)c1)c1ccc2c(c1)OCO2	inconclusive: 7.57 µM [inhibitor, partial curve]
COc1cc2c(cc1N)-c1ccc(N)cc1C2=O	active: 16.9 µM
CCOC(=O)Cc1nnc(NC(=O)C(CC)Sc2nnc3c4ccccc4n(C)c3n2)s1 (stereo unspecified)	active: 13.5 µM
COc1ccccc1N1CCN(/N=C/c2ccc([N+](=O)[O-])cc2)CC1	inconclusive: 5.36 µM [inhibitor, full curve]
Cc1ccc(-c2nnc(Nc3ccc(O)cc3)c3ccccc23)cc1S(=O)(=O)NCCO	inconclusive: 13.5 µM [inhibitor, partial curve]
O=C(Nc1ccon1)c1ccc(N2CCCCC2)c([N+](=O)[O-])c1	inactive
Cc1csc(NC(=O)c2ccc[nH]c2=O)n1	inconclusive: 15.1 µM [inhibitor, partial curve]
O=C(O)c1cccc(Nc2nc(-c3ccccc3)nc3ccccc23)c1	active: 12 µM
CC1CS(=O)(=O)CCN1N=Cc1ccc([N+](=O)[O-])o1 (stereo unspecified)	inconclusive: 30.1 µM [inhibitor, single point]
CN(CCCc1cnc[nH]1)C(=S)NCCCN(Cc1ccc(Cl)cc1)c1ccc(Br)cn1	inconclusive: 15.1 µM [inhibitor, partial curve]
COc1ccc(N2CCN(CCS(=O)(=O)c3cc(Cl)ccc3Cl)CC2)cc1	inconclusive: 16.9 µM [inhibitor, single point]
Cn1nc([N+](=O)[O-])nc1Sc1cccc2cccnc12	active: 2.69 µM
COc1cccc(C2c3[nH]c4ccccc4c3CCN2Cc2cccn2-c2ncccn2)c1 (stereo unspecified)	inconclusive: 15.1 µM [inhibitor, single point]
CC(C)c1nnc(NC(=O)CSc2nnc(-c3ccco3)o2)s1	inconclusive: 15.1 µM [inhibitor, partial curve]
CCN(CC)C(=O)c1ccc(O)c(OC)c1	inactive
CN(Cc1cn(-c2ccccc2)nc1-c1ccc2c(c1)OCO2)Cc1nccn1C	inconclusive: 16.9 µM [inhibitor, partial curve]
COc1ccc(NC(=O)c2ccc3[nH]c(C)c(C)c3c2)cc1	inconclusive: 16.9 µM [inhibitor, single point]
CCOC(=O)c1cc2c(N)c(C(=O)c3ccc(Br)cc3)sc2[nH]c1=O	active: 1.9 µM
C=C(CC[C@]12OC(C(=O)O)C(O)(C(=O)O)C(C(=O)O)(O1)C(OC(=O)/C=C/[C@@H](C)C[C@@H](C)CC)C2O)[C@@H](OC(C)=O)[C@H](C)Cc1ccccc1 (stereo partly specified)	inactive
Cc1ccc(-c2nc3ccccc3s2)cc1NC(=S)NC(=O)/C=C/c1ccco1	inactive

Part of the list above, set out differently:
Compound,Potency
CC(C)c1nnc(NC(=O)CSc2nnc(-c3ccco3)o2)s1,"inconclusive: 15.1 µM [inhibitor, partial curve]"
CCN(CC)C(=O)c1ccc(O)c(OC)c1,inactive
CN(Cc1cn(-c2ccccc2)nc1-c1ccc2c(c1)OCO2)Cc1nccn1C,"inconclusive: 16.9 µM [inhibitor, partial curve]"
COc1ccc(NC(=O)c2ccc3[nH]c(C)c(C)c3c2)cc1,"inconclusive: 16.9 µM [inhibitor, single point]"
